Results published in the supplement of paper PMC4635364.
Where a name gives a salt, the structure may show the parent alone. This is one part of the list. This data set is noisy: repeats of one test often differ as much as different tests do.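 Human fetal ventral-midbrain neural progenitor line ReNCell VM, differentiated without mitogens. Images stained for doublecortin (early neurons) or tyrosine hydroxylase (dopaminergic neurons) were scored by blinded raters against untreated wells (0 = no change). Repeats and both raters were averaged, and compounds averaging 2 or higher were picked as hits for retesting.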

Columns and labels:
ReNCell VM [1] = assay: neuronal differentiation score (DCX+ cell fraction vs untreated, manual image score) (score (-3 to 3)); higher = more neuronal differentiation; details: 2 uM, 2 weeks
ReNCell VM [2] = assay: dopaminergic neuron differentiation score (TH+ cell fraction vs untreated, manual image score) (score (0 to 3)); higher = more TH+ dopaminergic neuron differentiation; details: 2 uM, 4 weeks, BDNF 10 ng/ml + GDNF 10 ng/ml

O=c1c(-c2ccc(O)cc2)coc2cc(O)cc(O)c12 [Genistein]
inactive: neuronal differentiation score (ReNCell VM [1]; library: LOPAC) 0 | neuronal differentiation score (ReNCell VM [1]; library: Phytochemical) 0 | neuronal differentiation score (ReNCell VM [1]; library: Tocriscreen) -1 | dopaminergic neuron differentiation score (ReNCell VM [2]; library: LOPAC) 0 | dopaminergic neuron differentiation score (ReNCell VM [2]; library: Phytochemical) 0 | dopaminergic neuron differentiation score (ReNCell VM [2]; library: Tocriscreen) 0

COCCOC(=O)C1=C(C)NC(C)=C(C(=O)OC(C)C)C1c1cccc([N+](=O)[O-])c1 (configuration not stated) [Nimodipine]
inactive: neuronal differentiation score (ReNCell VM [1]; library: LOPAC) 0 | neuronal differentiation score (ReNCell VM [1]; library: Prestwick) 0 | neuronal differentiation score (ReNCell VM [1]; library: Tocriscreen) 0 | dopaminergic neuron differentiation score (ReNCell VM [2]; library: LOPAC) 0 | dopaminergic neuron differentiation score (ReNCell VM [2]; library: Prestwick) 0 | dopaminergic neuron differentiation score (ReNCell VM [2]; library: Tocriscreen) 0

CNCCC(Oc1ccc(C(F)(F)F)cc1)c1ccccc1 (configuration not stated) [Fluoxetine hydrochloride]
inactive: neuronal differentiation score (ReNCell VM [1]; library: LOPAC) 1 | neuronal differentiation score (ReNCell VM [1]; library: Prestwick) 0 | neuronal differentiation score (ReNCell VM [1]; library: Tocriscreen) 0 | dopaminergic neuron differentiation score (ReNCell VM [2]; library: LOPAC) 0 | dopaminergic neuron differentiation score (ReNCell VM [2]; library: Prestwick) 0 | dopaminergic neuron differentiation score (ReNCell VM [2]; library: Tocriscreen) 0

CCC1(c2ccccc2)C(=O)NCNC1=O [Primidone]
inactive: neuronal differentiation score (ReNCell VM [1]; library: LOPAC) 1 | neuronal differentiation score (ReNCell VM [1]; library: Prestwick) 0 | neuronal differentiation score (ReNCell VM [1]; library: Tocriscreen) 0 | dopaminergic neuron differentiation score (ReNCell VM [2]; library: LOPAC) 0 | dopaminergic neuron differentiation score (ReNCell VM [2]; library: Prestwick) 0 | dopaminergic neuron differentiation score (ReNCell VM [2]; library: Tocriscreen) 0

COc1ccc([C@@H]2Sc3ccccc3N(CCN(C)C)C(=O)[C@@H]2OC(C)=O)cc1 [Diltiazem hydrochloride]
inactive: neuronal differentiation score (ReNCell VM [1]; library: LOPAC) 0 | neuronal differentiation score (ReNCell VM [1]; library: Prestwick) 0 | neuronal differentiation score (ReNCell VM [1]; library: Tocriscreen) 0 | dopaminergic neuron differentiation score (ReNCell VM [2]; library: LOPAC) 0 | dopaminergic neuron differentiation score (ReNCell VM [2]; library: Prestwick) 0 | dopaminergic neuron differentiation score (ReNCell VM [2]; library: Tocriscreen) 0

COCCCC/C(=N\OCCN)c1ccc(C(F)(F)F)cc1 [Fluvoxamine maleate]
inactive: neuronal differentiation score (ReNCell VM [1]; library: LOPAC) 0 | neuronal differentiation score (ReNCell VM [1]; library: Prestwick) 0 | neuronal differentiation score (ReNCell VM [1]; library: Tocriscreen) 0 | dopaminergic neuron differentiation score (ReNCell VM [2]; library: LOPAC) 0 | dopaminergic neuron differentiation score (ReNCell VM [2]; library: Prestwick) 0 | dopaminergic neuron differentiation score (ReNCell VM [2]; library: Tocriscreen) 0

Cc1scc2c1N(C(=O)CN1CCN(C)CC1)c1ccccc1NC2=O [Telenzepine dihydrochloride]
inactive: neuronal differentiation score (ReNCell VM [1]; library: LOPAC) 0 | neuronal differentiation score (ReNCell VM [1]; library: Prestwick) 0 | neuronal differentiation score (ReNCell VM [1]; library: Tocriscreen) 0 | dopaminergic neuron differentiation score (ReNCell VM [2]; library: LOPAC) 0 | dopaminergic neuron differentiation score (ReNCell VM [2]; library: Prestwick) 0 | dopaminergic neuron differentiation score (ReNCell VM [2]; library: Tocriscreen) 0
